According to article PMC5344419, “The structure of FKBP38 in complex with the MEEVD tetratricopeptide binding-motif of Hsp90” (PLoS ONE, 2017):

Test system: FKBP^92-380
Assay: X-ray crystallography, peptides bound to the TPR domain of FKBP^92-380
Conditions: crystal structure at 2.18 Å (PDB 5MGX); peptide from proteolytic cleavage of yHsp90^546-709 during crystallization; four molecules of FKBP^92-380 in the unit cell

For ATEMEEVD, the “peptide bound to the TPR domain in the crystal” value (shortened to “peptide bound to the TPR domain”) was “bound peptides found”.

With EMEE the “peptide bound to the TPR domain” value was “bound peptides found”.

EMEEVD was tested, and the “peptide bound to the TPR domain” value was “bound peptides found”.
